Experimental data taken from publication PMC13189625.

Sequences of proteins named here, by UniProt entry; tags and fusion partners are left off.
UniProt O54851: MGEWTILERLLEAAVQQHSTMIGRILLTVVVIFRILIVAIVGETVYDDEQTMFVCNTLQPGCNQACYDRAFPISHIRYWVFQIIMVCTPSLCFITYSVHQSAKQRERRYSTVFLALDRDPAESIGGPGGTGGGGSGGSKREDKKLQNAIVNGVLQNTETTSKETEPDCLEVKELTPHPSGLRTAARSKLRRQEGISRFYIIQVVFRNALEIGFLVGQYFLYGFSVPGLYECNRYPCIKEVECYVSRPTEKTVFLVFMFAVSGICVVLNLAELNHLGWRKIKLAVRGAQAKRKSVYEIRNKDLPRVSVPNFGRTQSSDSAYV

Molecular target: Cx36-EGFP (mouse) (UniProt O54851)
Experiment: proximity labelling; GFP-directed TurboID in vivo: AAV HKamac_V5-TurboID-dGBP injected intravitreally into Cx36-EGFP mice (AII amacrine cells); 5 mM biotin subcutaneously on 4 days; 17 retinas a condition; streptavidin pull-down and LC/MS/MS; compared with injected wild-type mice, SAINT; done twice

| Binder | binding |
| --- | --- |
| Reticulon4 (protein, UniProt Q99P72 1-1162) MEDIDQSSLVSSSADSPPRPPPAFKYQFVTEPEDEEDEEDEEEEEDDEDLEELEVLERKPAAGLSAAPVPPAAAPLLDFSSDSVPPAPRGPLPAAPPTAPERQPSWERSPAASAPSLPPAAAVLPSKLPEDDEPPARPPAPAGASPLAEPAAPPSTPAAPKRRGSGSVDETLFALPAASEPVIPSSAEKIMDLKEQPGNTVSSGQEDFPSVLFETAASLPSLSPLSTVSFKEHGYLGNLSAVASTEGTIEETLNEASRELPERATNPFVNRESAEFSVLEYSEMGSSFNGSPKGESAMLVENTKEEVIVRSKDKEDLVCSAALHNPQESPATLTKVVKEDGVMSPEKTMDIFNEMKMSVVAPVREEYADFKPFEQAWEVKDTYEGSRDVLAARANMESKVDKKCFEDSLEQKGHGKDSESRNENASFPRTPELVKDGSRAYITCDSFSSATESTAANIFPVLEDHTSENKTDEKKIEERKAQIITEKTSPKTSNPFLVAIHDSEADYVTTDNLSKVTEAVVATMPEGLTPDLVQEACESELNEATGTKIAYETKVDLVQTSEAIQESIYPTAQLCPSFEEAEATPSPVLPDIVMEAPLNSLLPSTGASVAQPSASPLEVPSPVSYDGIKLEPENPPPYEEAMSVALKTSDSKEEIKEPESFNAAAQEAEAPYISIACDLIKETKLSTEPSPEFSNYSEIAKFEKSVPDHCELVDDSSPESEPVDLFSDDSIPEVPQTQEEAVMLMKESLTEVSETVTQHKHKERLSASPQEVGKPYLESFQPNLHITKDAASNEIPTLTKKETISLQMEEFNTAIYSNDDLLSSKEDKMKESETFSDSSPIEIIDEFPTFVSAKDDSPKEYTDLEVSNKSEIANVQSGANSLPCSELPCDLSFKNTYPKDEAHVSDEFSKSRSSVSKVPLLLPNVSALESQIEMGNIVKPKVLTKEAEEKLPSDTEKEDRSLTAVLSAELNKTSVVDLLYWRDIKKTGVVFGASLFLLLSLTVFSIVSVTAYIALALLSVTISFRIYKGVIQAIQKSDEGHPFRAYLESEVAISEELVQKYSNSALGHVNSTIKELRRLFLVDDLVDSLKFAVLMWVFTYVGALFNGLTLLILALISLFSIPVIYERHQAQIDHYLGLANKSVKDAMAKIQAKIPGLKRKAE | binds |
| Sec22b (mouse retina) (protein, UniProt O08547 1-215) MVLLTMIARVADGLPLAASMQEDEQSGRDLQQYQSQAKQLFRKLNEQSPTRCTLEAGAMTFHYIIEQGVCYLVLCEAAFPKKLAFAYLEDLHSEFDEQHGKKVPTVSRPYSFIEFDTFIQKTKKLYIDSRARRNLGSINTELQDVQRIMVANIEEVLQRGEALSALDSKANNLSSLSKKYRQDAKYLNMRSTYAKLAAVAVFFIMLIVYVRFWWL | binds |

No constants are given. Whether binding was seen depends on the method and setting. In cells and extracts the contact can be indirect. A yes stands for co-enrichment or nearness to the bait. Other partners may have been found.
